# Data as given in patent US20020031818A1, “Modification of Mdm2 activity” (priority 2000, published 2002).
# For at least one compound, name, drawing or mass did not settle the structure.
# System: Mdm2
# Assay: In vivo ubiquitination of Mdm2 in EJ cells (HA-Ub, Mdm2 immunoprecipitation)
# Type: cell-based, mouse
# Settings: SB203580 10 μM or LY294002 50 μM, 2 h prior to harvest
# Text: FIG. 14A-14E. A. In vitro ubiquitination of Mdm2 is inhibited by p19^ARF. GST-Mdm2 was subjected to an in vitro ubiquitination reaction using purified forms of E1, E2 and Ub-HA in the presence of ATP. Addition of bacculovirus-purified p19^ARF at the indicated concentrations blocked Mdm2 ubiquitination. Glutathione bead-coupled GST-Mdm2 in its ubiquitinated or non-ubiquitinated forms was washed and analyzed on immunoblots using antibodies to HA (upper panel). Middle panel depicts the level of Mdm2 expression and the lower panel, the level of p19^ARF added to the reaction. B. p19^ARF expression increases Mdm2 self-ubiquitination in EJ cells. EJ cells were transfected with the indicated plasmids. Cells were harvested 36 h later and proteins ([…]) were immunoprecipitated using Mdm2 antibodies (2A10). Immunoprecipitated material was washed and proteins loaded onto 10% SDS-PAGE, followed by immunoblot analysis with HA-antibodies to detect covalent HA-ubiquitin conjugation to Mdm2 (upper panel). Middle panel depicts level of immunoprecipitated Mdm2. Lower panel represents western analysis of p19^ARF expression levels. C. In vitro ubiquitination of Mdm2 in the presence of p19^ARF and protein extracts. […] The level of p53 immunoprecipitated was monitored in immunoblots using polyclonal antibodies to p53 (middle). […]
smiles,measurement,value
O=c1cc(N2CCOCC2)oc2c(-c3ccccc3)cccc12 [pharmacological inhibitor of PI3K],increase in Mdm2 ubiquitination after UV treatment in inhibitor-pretreated cells,not by
